# Measurements from the supplement of paper PMC8728848.
# Some of the results follow.
# Tests used:
# Experiment in all cases: glycan array binding signal (z-score within array); higher = stronger binding
# Conditions in all cases: glycan notation: IUPAC condensed, linker removed
# [1] = target: Fuc(a1-2)[Gal(a1-3)]Gal(b1-4)GlcNAc(b1-2)Man(a1-3)[Fuc(a1-2)[Gal(a1-3)]Gal(b1-4)GlcNAc(b1-2)Man(a1-6)]Man(b1-4)GlcNAc(b1-4)GlcNAc
# In short: (§1)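 The Consortium for Functional Glycomics database supplied 3228 glycan arrays, of which those lacking an available protein sequence were dropped. The binding signal, a within-array Z-score, was averaged across arrays of the same protein sequence and across linkers. Negative scores can be read as non-binding.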
# [2] = target: Fuc(a1-2)[Gal(a1-3)]Gal(b1-4)GlcNAc(b1-2)Man(a1-3)[Fuc(a1-2)[Gal(a1-3)]Gal(b1-4)GlcNAc(b1-2)Man(a1-6)]Man(b1-4)GlcNAc(b1-4)[Fuc(a1-6)]GlcNAc
# In short: as §1
# [3] = target: Fuc(a1-2)[Gal(a1-3)]Gal(b1-4)GlcNAc(b1-3)GalNAc
# In short: as §1
# [4] = target: Fuc(a1-2)[Gal(a1-3)]Gal(b1-4)GlcNAc(b1-3)[Fuc(a1-2)[Gal(a1-3)]Gal(b1-4)GlcNAc(b1-6)]GalNAc
# In short: as §1
# [5] = target: Fuc(a1-2)[Gal(a1-3)]Gal(b1-4)GlcNAc(b1-6)GalNAc
# In short: as §1
# [6] = target: Fuc(a1-2)[Gal(a1-3)]Gal(b1-4)[Fuc(a1-3)]Glc
# In short: as §1
# [7] = target: Fuc(a1-2)[Gal(a1-3)]Gal(b1-4)[Fuc(a1-3)]GlcNAc
# In short: as §1
# [8] = target: Fuc(a1-2)[Gal(a1-3)]Gal(b1-4)[Fuc(a1-3)]GlcNAc(b1-3)GalNAc
# In short: as §1
# [9] = target: Fuc(a1-2)[Gal(a1-4)]Gal(b1-4)GlcNAc
# In short: as §1
# [10] = target: Fuc(a1-2)[GalNAc(a1-3)]Gal
# In short: as §1
# [11] = target: Fuc(a1-2)[GalNAc(a1-3)]Gal(b1-3)GalNAc(a1-3)[Fuc(a1-2)]Gal(b1-4)GlcNAc
# In short: as §1
# [12] = target: Fuc(a1-2)[GalNAc(a1-3)]Gal(b1-3)GalNAc(b1-3)Gal(a1-4)Gal(b1-4)Glc
# In short: as §1
# [13] = target: Fuc(a1-2)[GalNAc(a1-3)]Gal(b1-3)GlcNAc
# In short: as §1
# [14] = target: Fuc(a1-2)[GalNAc(a1-3)]Gal(b1-3)GlcNAc(b1-2)Man(a1-3)[Fuc(a1-2)[GalNAc(a1-3)]Gal(b1-3)GlcNAc(b1-2)Man(a1-6)]Man(b1-4)GlcNAc(b1-4)GlcNAc
# In short: as §1
# [15] = target: Fuc(a1-2)[GalNAc(a1-3)]Gal(b1-3)GlcNAc(b1-2)Man(a1-3)[Fuc(a1-2)[GalNAc(a1-3)]Gal(b1-3)GlcNAc(b1-2)Man(a1-6)]Man(b1-4)GlcNAc(b1-4)[Fuc(a1-6)]GlcNAc
# In short: as §1
# [16] = target: Fuc(a1-2)[GalNAc(a1-3)]Gal(b1-3)GlcNAc(b1-3)GalNAc
# In short: as §1
# [17] = target: Fuc(a1-2)[GalNAc(a1-3)]Gal(b1-3)GlcNAc(b1-6)GalNAc
# In short: as §1
# [18] = target: Fuc(a1-2)[GalNAc(a1-3)]Gal(b1-4)Glc
# In short: as §1
# [19] = target: Fuc(a1-2)[GalNAc(a1-3)]Gal(b1-4)GlcNAc
# In short: as §1
# [20] = target: Fuc(a1-2)[GalNAc(a1-3)]Gal(b1-4)GlcNAc(b1-2)Man
# In short: as §1
# [21] = target: Fuc(a1-2)[GalNAc(a1-3)]Gal(b1-4)GlcNAc(b1-2)Man(a1-3)[Fuc(a1-2)[GalNAc(a1-3)]Gal(b1-4)GlcNAc(b1-2)Man(a1-6)]Man(b1-4)GlcNAc(b1-4)GlcNAc
# In short: as §1
# [22] = target: Fuc(a1-2)[GalNAc(a1-3)]Gal(b1-4)GlcNAc(b1-2)Man(a1-3)[Fuc(a1-2)[GalNAc(a1-3)]Gal(b1-4)GlcNAc(b1-2)Man(a1-6)]Man(b1-4)GlcNAc(b1-4)[Fuc(a1-6)]GlcNAc
# In short: as §1
# [23] = target: Fuc(a1-2)[GalNAc(a1-3)]Gal(b1-4)GlcNAc(b1-3)Gal(b1-4)GlcNAc
# In short: as §1
# [24] = target: Fuc(a1-2)[GalNAc(a1-3)]Gal(b1-4)GlcNAc(b1-3)Gal(b1-4)GlcNAc(b1-3)Gal(b1-4)GlcNAc
# In short: as §1
# [25] = target: Fuc(a1-2)[GalNAc(a1-3)]Gal(b1-4)GlcNAc(b1-3)GalNAc
# In short: as §1
# [26] = target: Fuc(a1-2)[GalNAc(a1-3)]Gal(b1-4)GlcNAc(b1-3)[Fuc(a1-2)[GalNAc(a1-3)]Gal(b1-4)GlcNAc(b1-6)]GalNAc
# In short: as §1
# [27] = target: Fuc(a1-2)[GalNAc(a1-3)]Gal(b1-4)GlcNAc(b1-6)GalNAc
# In short: as §1
# [28] = target: Fuc(a1-2)[GalNAc(a1-3)]Gal(b1-4)[Fuc(a1-3)]GlcNAc
# In short: as §1
# [29] = target: Fuc(a1-2)[GalNAc(a1-3)]Gal(b1-4)[Fuc(a1-3)]GlcNAc(b1-3)GalNAc
# In short: as §1
# [30] = target: Fuc(a1-2)[GalNAc(a1-4)]Gal(b1-4)GlcNAc
# In short: as §1
# [31] = target: Fuc(a1-2)[GalNAc(b1-3)]Gal
# In short: as §1
# [32] = target: Fuc(a1-3)GlcNAc
# In short: as §1
# [33] = target: Fuc(a1-3)[Gal(b1-4)]Glc6S
# In short: as §1
# [34] = target: Fuc(a1-3)[Gal(b1-4)]GlcNAc
# In short: as §1
# [35] = target: Fuc(a1-3)[Gal(b1-4)]GlcNAc(b1-2)Man
# In short: as §1
# [36] = target: Fuc(a1-3)[Gal(b1-4)]GlcNAc(b1-2)Man(a1-3)[Fuc(a1-3)[Gal(b1-4)]GlcNAc(b1-2)Man(a1-6)]Man(b1-4)GlcNAc(b1-4)GlcNAc
# In short: as §1
# [37] = target: Fuc(a1-3)[Gal(b1-4)]GlcNAc(b1-2)Man(a1-3)[Fuc(a1-3)[Gal(b1-4)]GlcNAc(b1-2)Man(a1-6)]Man(b1-4)GlcNAc(b1-4)[Fuc(a1-6)]GlcNAc
# In short: as §1
# [38] = target: Fuc(a1-3)[Gal(b1-4)]GlcNAc(b1-3)Gal(b1-3)[Fuc(a1-4)]GlcNAc
# In short: as §1
# [39] = target: Fuc(a1-3)[Gal(b1-4)]GlcNAc(b1-3)Gal(b1-4)[Fuc(a1-3)]GlcNAc
# In short: as §1
# [40] = target: Fuc(a1-3)[Gal(b1-4)]GlcNAc(b1-3)Gal(b1-4)[Fuc(a1-3)]GlcNAc(b1-3)Gal(b1-4)[Fuc(a1-3)]GlcNAc
# In short: as §1
# [41] = target: Fuc(a1-3)[Gal(b1-4)]GlcNAc(b1-3)GalNAc
# In short: as §1
# [42] = target: Fuc(a1-3)[Gal(b1-4)]GlcNAc(b1-6)GalNAc
# In short: as §1
# [43] = target: Fuc(a1-3)[Gal(b1-4)]GlcNAc(b1-6)[Gal(b1-3)GlcNAc(b1-3)]Gal(b1-4)Glc
# In short: as §1
# [44] = target: Fuc(a1-3)[Gal(b1-4)]GlcNAc6S
# In short: as §1
# [45] = target: Fuc(a1-3)[Gal3S(b1-4)]Glc
# In short: as §1
# [46] = target: Fuc(a1-3)[Gal3S(b1-4)]GlcNAc
# In short: as §1
# [47] = target: Fuc(a1-3)[Gal3S(b1-4)]GlcNAc6S
# In short: as §1
# [48] = target: Fuc(a1-3)[GalNAc(b1-4)]GlcNAc
# In short: as §1
# [49] = target: Fuc(a1-3)[GalNAc(b1-4)]GlcNAc6S
# In short: as §1
# [50] = target: Fuc(a1-4)GlcNAc
# In short: as §1
# [51] = target: Fuc(b1-3)GlcNAc
# In short: as §1
# [52] = target: Gal(a1-2)Gal
# In short: as §1
# [53] = target: Gal(a1-3)Gal
# In short: as §1
# [54] = target: Gal(a1-3)Gal(b1-3)GlcNAc
# In short: as §1
# [55] = target: Gal(a1-3)Gal(b1-3)GlcNAc(b1-2)Man
# In short: as §1
# [56] = target: Gal(a1-3)Gal(b1-3)GlcNAc(b1-2)Man(a1-3)[Gal(a1-3)Gal(b1-3)GlcNAc(b1-2)Man(a1-6)]Man(b1-4)GlcNAc(b1-4)GlcNAc
# In short: as §1
# [57] = target: Gal(a1-3)Gal(b1-3)GlcNAc(b1-3)GalNAc
# In short: as §1
# [58] = target: Gal(a1-3)Gal(b1-3)GlcNAc(b1-6)GalNAc
# In short: as §1
# [59] = target: Gal(a1-3)Gal(b1-3)[Fuc(a1-4)]GlcNAc(b1-2)Man(a1-3)[Gal(a1-3)Gal(b1-3)[Fuc(a1-4)]GlcNAc(b1-2)Man(a1-6)]Man(b1-4)GlcNAc(b1-4)GlcNAc
# In short: as §1
# [60] = target: Gal(a1-3)Gal(b1-4)Glc
# In short: as §1
binder,measurement,setting,value
Epa8 (Candida glabrata) (protein) MGSSHHHHHHSSGLVPRGSHMASSRALSDYPLGCSPLLGTKLTPGLSMELYEYPLDNHGIGPHCWDPAYLNPEYPRTGFESHKLIGTAQNVMSLNFEHRTQDCHVEFSNLPASFNFPDQITLTNFTMLLYGYFKPKESGRYRFHMEADDLLLMNLGAGNAFDCCAHEATRNNLGDYIAYDIWAGTRKDVEVFLEKEVFYPLRLFFNNRDGRAALDFSYYLNGATEPGTDIPELLFSLPDGESCPAYI,glycan array binding signal (z-score),[1],-0.353
same,glycan array binding signal (z-score),[2],0.03
same,glycan array binding signal (z-score),[3],-0.576
same,glycan array binding signal (z-score),[4],0.437
same,glycan array binding signal (z-score),[5],1.43
same,glycan array binding signal (z-score),[6],-0.691
same,glycan array binding signal (z-score),[7],-0.006
same,glycan array binding signal (z-score),[8],0.72
same,glycan array binding signal (z-score),[9],-0.094
same,glycan array binding signal (z-score),[10],-0.593
same,glycan array binding signal (z-score),[11],-0.446
same,glycan array binding signal (z-score),[12],0.323
same,glycan array binding signal (z-score),[13],-0.03
same,glycan array binding signal (z-score),[14],-0.325
same,glycan array binding signal (z-score),[15],0.09
same,glycan array binding signal (z-score),[16],0.525
same,glycan array binding signal (z-score),[17],-0.174
same,glycan array binding signal (z-score),[18],-0.151
same,glycan array binding signal (z-score),[19],-0.237
same,glycan array binding signal (z-score),[20],-0.002
same,glycan array binding signal (z-score),[21],1.72
same,glycan array binding signal (z-score),[22],0.443
same,glycan array binding signal (z-score),[23],-0.51
same,glycan array binding signal (z-score),[24],0.493
same,glycan array binding signal (z-score),[25],-0.515
same,glycan array binding signal (z-score),[26],0.36
same,glycan array binding signal (z-score),[27],-0.273
same,glycan array binding signal (z-score),[28],-0.536
same,glycan array binding signal (z-score),[29],3.16
same,glycan array binding signal (z-score),[30],-0.072
same,glycan array binding signal (z-score),[31],0.229
same,glycan array binding signal (z-score),[32],0.171
same,glycan array binding signal (z-score),[33],0.622
same,glycan array binding signal (z-score),[34],-0.523
same,glycan array binding signal (z-score),[35],-0.309
same,glycan array binding signal (z-score),[36],-0.093
same,glycan array binding signal (z-score),[37],0.585
same,glycan array binding signal (z-score),[38],-0.552
same,glycan array binding signal (z-score),[39],-0.126
same,glycan array binding signal (z-score),[40],-0.784
same,glycan array binding signal (z-score),[41],0.404
same,glycan array binding signal (z-score),[42],1.23
same,glycan array binding signal (z-score),[43],-0.688
same,glycan array binding signal (z-score),[44],0.492
same,glycan array binding signal (z-score),[45],-0.205
same,glycan array binding signal (z-score),[46],0.094
same,glycan array binding signal (z-score),[47],0.484
same,glycan array binding signal (z-score),[48],-0.278
same,glycan array binding signal (z-score),[49],-0.401
same,glycan array binding signal (z-score),[50],-0.22
same,glycan array binding signal (z-score),[51],-0.121
same,glycan array binding signal (z-score),[52],-0.54
same,glycan array binding signal (z-score),[53],1.5
same,glycan array binding signal (z-score),[54],0.403
same,glycan array binding signal (z-score),[55],0.558
same,glycan array binding signal (z-score),[56],1.03
same,glycan array binding signal (z-score),[57],-0.12
same,glycan array binding signal (z-score),[58],0.137
same,glycan array binding signal (z-score),[59],0.112
same,glycan array binding signal (z-score),[60],0.32

# Exported as tab-separated lines: part of the list above
binder	measurement	setting	value
Epa8 (Candida glabrata) (protein) MGSSHHHHHHSSGLVPRGSHMASSRALSDYPLGCSPLLGTKLTPGLSMELYEYPLDNHGIGPHCWDPAYLNPEYPRTGFESHKLIGTAQNVMSLNFEHRTQDCHVEFSNLPASFNFPDQITLTNFTMLLYGYFKPKESGRYRFHMEADDLLLMNLGAGNAFDCCAHEATRNNLGDYIAYDIWAGTRKDVEVFLEKEVFYPLRLFFNNRDGRAALDFSYYLNGATEPGTDIPELLFSLPDGESCPAYI	glycan array binding signal (z-score)	[46]	0.094
same	glycan array binding signal (z-score)	[57]	-0.12
same	glycan array binding signal (z-score)	[60]	0.32
